Test results taken from the supplement of paper PMC3334620.
In all, about 33,000 sequences were measured (“E-score (-0.5 to 0.5)”: median about -0.0034, highest 2% from about 0.25 on). The list shows a part of the results.

biological target: T1, Yap3 (UniProt P38749); test: PBM E-score (8-mer binding enrichment) (E-score (-0.5 to 0.5)); higher = stronger / more preferred TF binding; conditions: protein concentration: 100 nM; construct: GST-full length
T1 sequence: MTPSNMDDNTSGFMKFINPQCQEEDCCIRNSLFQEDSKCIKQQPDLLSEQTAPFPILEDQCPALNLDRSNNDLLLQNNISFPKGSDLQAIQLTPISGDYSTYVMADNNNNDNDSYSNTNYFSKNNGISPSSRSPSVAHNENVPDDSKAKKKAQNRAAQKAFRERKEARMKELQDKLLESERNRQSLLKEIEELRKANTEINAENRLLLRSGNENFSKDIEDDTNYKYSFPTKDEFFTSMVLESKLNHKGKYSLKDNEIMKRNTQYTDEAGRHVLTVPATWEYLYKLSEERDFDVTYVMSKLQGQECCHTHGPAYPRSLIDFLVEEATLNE
Protocol: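 Universal 'all 10-mer' protein binding microarrays (Agilent AMADID 015681) probed with GST-tagged S. cerevisiae TFs (full-length or DBD) made by in vitro transcription/translation (PURExpress), about 100-200 nM. Bound TF was detected with fluorescent anti-GST. Each ungapped 8-mer (which stands for itself and its reverse complement) is scored by the PBM enrichment score (E-score), a modified Wilcoxon-Mann-Whitney statistic from -0.5 to +0.5, computed with the Universal PBM Analysis Suite. Scale: above 0.35 generally sequence-specific binding.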

Sequence | PBM E-score
ACAATTGT | 0.246
CCCTATCA | -0.0511
CCTACTGC | -0.181
CATCCCTA | 0.018
GTCTACAC | 0.0027
AGAGCTAT | -0.0689
ACCGGAAG | 0.124
AATATCCG | 0.219
GTCAGTAA | 0.0943
AACTAACA | 0.211
ATTAGCCA | 0.104
ACAGGAAA | 0.231
ACCTCGAA | 0.00835
ACATGATA | 0.263
GTCTATCA | 0.0672
CCGGGGAC | -0.359
CTACGTCC | -0.0593
GTACCCCA | -0.161
ACAGGGCT | -0.226
GGGCTTAC | 0.0848
AAGGTGTG | -0.0151
CCCCTCAA | -0.154
ACGTAGCC | -0.277
ATTTAAGA | 0.107

Sequence | PBM E-score
ACATTACC | 0.0935
GCCACCTA | -0.134
AATCCAAA | 0.184
CCCGTGGC | -0.274
AATTCACG | 0.016
CATGGGCA | -0.0447
GTGCAGCA | -0.204
GAATACAC | 0.0407
ACAGAATA | 0.156
GCTGTTCA | 0.0667
AGGTTACA | -0.0016
GCAAGTGA | 0.04
TAGGACAA | 0.175
GGTAACCA | -0.0706
CGGAGTAC | -0.183
CACTACAG | -0.0657
ATGTAGTC | 0.059
TGATCCCA | 0.0451
GCTTTGAA | 0.0381
CGTGGAAC | -0.141
ATTGTGGA | 0.0763
ACGTGAAC | -0.0502
CGCGGGCC | -0.151
GACGGGGA | -0.164

Sequence | PBM E-score
CAGATGCC | -0.126
CCATTCAG | 0.121
GCTTGGTA | 0.147
AGGTCCTA | -0.275
GGATGGGA | -0.00463
CATGGTAC | 0.099
TAGTACAA | 0.104
CCCGCAGG | -0.265
CCCGTGAG | -0.134
AAAAGCCA | 0.158
AAAGGCTG | -0.119
CATCGGGG | -0.224
ACGTCAGG | -0.0448
CGCACTTA | -0.0802
TCGGTACA | 0.0158
CACTTCTA | -0.098
CTGATCAC | -0.0878
AAGAACGA | 0.142
AGAAAGTA | 0.147
GGCGCGAC | -0.00599
AAATGCCA | -0.0485
CCGTGCAC | -0.0612
GGTCATAA | 0.144
AAGGCACA | -0.0116

Sequence | PBM E-score
ACGTCAAG | -0.0375
ACCCACTA | 0.158
ACGTGAAA | 0.211
CGCCATTC | -0.113
ATCATGAT | 0.0948
TAGGGTAA | 0.152
CCTCCCCC | -0.297
CATCGAGG | -0.049
AGTGCCCC | -0.218
GTGCTCAA | -0.00113
GTATGCGA | -0.00207
TCGCCTCA | 0.0237
CCCGAATC | -0.0671
AGCGTACC | -0.225
ACAGATAA | 0.141
GATGTTAA | 0.132
AATCAATC | 0.139
CTCCGTTA | -0.0621
CAAGGACC | -0.0543
AGGCGGGG | -0.0628
CATTACCA | 0.1
ATCCTCCC | -0.0451

At a glance, part of the list above.
Sequence | PBM E-score
AGGTTACA | -0.0016
GCAAGTGA | 0.04
TAGGACAA | 0.175
GGTAACCA | -0.0706
CGGAGTAC | -0.183
CACTACAG | -0.0657
